Test results: publication PMC5788916, “The SAM domain of mouse SAMHD1 is critical for its activation and regulation” (Nature Communications, 2018)
No constants are given. Whether binding was seen depends on the method and setting.

Molecular target: mouse SAMHD1 HD domain, isoform 1 (residues 145-658) (mouse) (UniProt Q60710)
Test: condition: only in the absence of allosteric nucleotides; SEC; Superdex 200 10/300 GL; 2 mg/ml, 200 ul; 50 mM Tris-HCl pH 8.0, 150 mM NaCl, 5 mM MgCl2, 0.5 mM TCEP; no nucleotides added; both purified

binding: no binding
B1: mouse SAMHD1 HD domain, isoform 1 (residues 145-658) (domain or fragment, UniProt Q60710 145-658, looked up)
chain: DLMKVFNDPIHGHIEFHPLLIRIIDTPQFQRLRYIKQLGGGYYVFPGASHNRFEHSLGVGYLAGCLVRALAEKQPELQISERDILCVQIAGLCHDLGHGPFSHMFDGRFIPRARPEKKWKHEQGSIEMFEHLVNSNELKLVMKNYGLVPEEDITFIKEQIMGPPITPVKDSLWPYKGRPATKSFLYEIVSNKRNGIDVDKWDYFARDCHHLGIQNNFDYKRFIKFARICEVEYKVKEDKTYIRKVKHICSREKEVGNLYDMFHTRNCLHRRAYQHKISNLIDIMITDAFLKADPYVEITGTAGKKFRISTAIDDMEAFTKLTDNIFLEVLHSTDPQLSEAQSILRNIECRNLYKYLGETQPKREKIRKEEYERLPQEVAKAKPEKAPDVELKAEDFIVDVINVDYGMEDKNPIDRVHFYCKSNSKQAVRINKEQVSQLLPEKFAEQLIRVYCKKKDGKSLDAAGKHFVQWCALRDFTKPQDGDIIAPLITPLKWNNKTSSCLQEVSKVKTCLKF
notes: mouse SAMHD1 isoform 1, HD domain without the SAM domain, residues 145-658; The text speaks of 'mHD' and gives limits for both isoforms; source: E. coli BL21 (DE3), purified (Ni-NTA, size-exclusion chromatography)
